Our source for the binding values is publication PMC5366945.

Chains of the proteins cited; added tags and fusions are not shown.
UniProt O88597: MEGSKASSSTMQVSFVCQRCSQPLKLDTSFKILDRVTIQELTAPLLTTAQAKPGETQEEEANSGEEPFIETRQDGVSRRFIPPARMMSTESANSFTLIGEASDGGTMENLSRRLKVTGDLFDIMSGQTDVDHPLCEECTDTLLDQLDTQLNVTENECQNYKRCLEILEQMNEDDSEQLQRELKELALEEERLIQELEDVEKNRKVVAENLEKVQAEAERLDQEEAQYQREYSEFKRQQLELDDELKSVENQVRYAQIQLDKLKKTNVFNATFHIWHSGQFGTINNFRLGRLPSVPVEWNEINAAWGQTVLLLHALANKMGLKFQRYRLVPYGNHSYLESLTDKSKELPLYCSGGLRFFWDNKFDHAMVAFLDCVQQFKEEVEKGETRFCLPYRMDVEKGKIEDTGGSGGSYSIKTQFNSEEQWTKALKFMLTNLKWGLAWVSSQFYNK
UniProt Q64511: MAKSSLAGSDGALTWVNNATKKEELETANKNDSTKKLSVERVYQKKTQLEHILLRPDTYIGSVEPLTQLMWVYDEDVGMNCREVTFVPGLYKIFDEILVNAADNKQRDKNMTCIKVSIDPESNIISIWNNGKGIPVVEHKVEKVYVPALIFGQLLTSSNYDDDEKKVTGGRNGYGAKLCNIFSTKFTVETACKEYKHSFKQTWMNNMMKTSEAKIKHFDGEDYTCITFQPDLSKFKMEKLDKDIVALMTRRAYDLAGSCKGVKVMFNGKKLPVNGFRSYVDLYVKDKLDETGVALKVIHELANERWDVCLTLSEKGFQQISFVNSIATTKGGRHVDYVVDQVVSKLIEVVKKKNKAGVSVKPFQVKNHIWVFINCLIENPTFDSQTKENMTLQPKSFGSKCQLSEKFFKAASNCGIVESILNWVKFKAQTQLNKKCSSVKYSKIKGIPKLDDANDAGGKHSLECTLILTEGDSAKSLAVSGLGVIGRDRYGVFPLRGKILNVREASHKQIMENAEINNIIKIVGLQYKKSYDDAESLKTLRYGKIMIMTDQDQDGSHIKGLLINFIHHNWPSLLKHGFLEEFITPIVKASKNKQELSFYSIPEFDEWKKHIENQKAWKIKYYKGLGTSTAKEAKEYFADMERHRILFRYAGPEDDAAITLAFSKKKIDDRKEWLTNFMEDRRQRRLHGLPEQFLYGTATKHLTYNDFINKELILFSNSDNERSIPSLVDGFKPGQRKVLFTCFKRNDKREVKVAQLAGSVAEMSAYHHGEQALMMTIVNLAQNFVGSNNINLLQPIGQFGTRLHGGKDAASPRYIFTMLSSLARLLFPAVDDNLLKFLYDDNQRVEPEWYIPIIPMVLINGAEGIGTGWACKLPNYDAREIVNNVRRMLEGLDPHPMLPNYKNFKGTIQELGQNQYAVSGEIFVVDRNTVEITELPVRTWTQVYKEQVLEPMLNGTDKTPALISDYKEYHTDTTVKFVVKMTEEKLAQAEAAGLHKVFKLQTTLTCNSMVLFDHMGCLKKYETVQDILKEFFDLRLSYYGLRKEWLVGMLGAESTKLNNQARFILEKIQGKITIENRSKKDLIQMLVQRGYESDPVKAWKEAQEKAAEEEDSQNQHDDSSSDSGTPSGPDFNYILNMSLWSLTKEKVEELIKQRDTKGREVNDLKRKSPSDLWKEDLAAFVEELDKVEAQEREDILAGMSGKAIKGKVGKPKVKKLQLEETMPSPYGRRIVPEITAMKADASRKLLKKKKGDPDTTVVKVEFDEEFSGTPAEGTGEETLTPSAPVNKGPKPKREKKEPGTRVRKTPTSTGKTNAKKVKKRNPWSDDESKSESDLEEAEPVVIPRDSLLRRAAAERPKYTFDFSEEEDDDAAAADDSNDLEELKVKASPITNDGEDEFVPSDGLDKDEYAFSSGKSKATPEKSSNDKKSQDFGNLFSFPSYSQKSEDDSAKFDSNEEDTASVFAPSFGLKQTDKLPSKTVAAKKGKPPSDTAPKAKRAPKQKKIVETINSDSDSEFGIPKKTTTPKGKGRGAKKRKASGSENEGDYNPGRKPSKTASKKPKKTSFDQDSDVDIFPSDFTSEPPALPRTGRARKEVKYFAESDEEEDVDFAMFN

These are yes or no findings as the source states them, for the method shown. In cells and extracts the contact can be indirect. These calls come from enrichment with a bait or labelling near it, and not all partners need be listed.

This experiment deals with Flag-tagged Beclin 1 (expressed in NIH3T3 cells) (not stated (human or mouse cDNA cloned)) (UniProt O88597). Put plainly: affinity purification with mass spectrometry; NIH3T3 cells stably expressing Flag-tagged Beclin 1 or vector; nuclear proteins immuno-isolated with anti-Flag beads; silver-stained SDS-PAGE bands identified by mass spectrometry.

Consider “DNA topoisomerase IIβ (endogenous, NIH3T3) (from UniProt Q64511 1-1612)”, for which the binding entry is given as “binds”.
